Our source for the binding values is PMC10892618.

Amino acid sequences for entries named in this document (tags omitted).
UniProt P16403: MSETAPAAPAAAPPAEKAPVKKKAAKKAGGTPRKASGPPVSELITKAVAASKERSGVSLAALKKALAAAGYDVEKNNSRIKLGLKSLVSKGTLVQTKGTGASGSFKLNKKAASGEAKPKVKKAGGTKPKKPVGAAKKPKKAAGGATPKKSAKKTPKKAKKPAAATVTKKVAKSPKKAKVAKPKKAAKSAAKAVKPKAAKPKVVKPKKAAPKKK
UniProt Q7Z434: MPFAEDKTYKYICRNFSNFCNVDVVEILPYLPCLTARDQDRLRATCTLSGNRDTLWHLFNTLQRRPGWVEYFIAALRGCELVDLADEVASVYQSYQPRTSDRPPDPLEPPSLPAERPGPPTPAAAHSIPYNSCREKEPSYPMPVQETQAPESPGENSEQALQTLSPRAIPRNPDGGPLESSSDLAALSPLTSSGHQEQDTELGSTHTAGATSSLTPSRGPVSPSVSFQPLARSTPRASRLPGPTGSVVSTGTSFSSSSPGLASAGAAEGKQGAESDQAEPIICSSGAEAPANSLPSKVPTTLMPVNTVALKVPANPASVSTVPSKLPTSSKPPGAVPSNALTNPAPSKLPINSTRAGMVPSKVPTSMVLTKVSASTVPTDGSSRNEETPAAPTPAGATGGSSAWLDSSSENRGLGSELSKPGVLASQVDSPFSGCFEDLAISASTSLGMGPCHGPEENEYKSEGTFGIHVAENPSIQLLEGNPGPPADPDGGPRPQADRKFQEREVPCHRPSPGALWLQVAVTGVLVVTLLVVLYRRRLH

The target of one assay is Myc-tagged histone H1.2 (UniProt P16403). Put plainly: co-IP; HEK293T co-transfected with pCMV-Myc-H1.2 and a pCMV-Flag plasmid for 36 h; RIPA lysate; H1.2 as the precipitated protein; Protein G Agarose; western blotting.
The next assay concerns the target T1, Flag-tagged MDA5 (UniProt Q9BYX4).
T1 sequence: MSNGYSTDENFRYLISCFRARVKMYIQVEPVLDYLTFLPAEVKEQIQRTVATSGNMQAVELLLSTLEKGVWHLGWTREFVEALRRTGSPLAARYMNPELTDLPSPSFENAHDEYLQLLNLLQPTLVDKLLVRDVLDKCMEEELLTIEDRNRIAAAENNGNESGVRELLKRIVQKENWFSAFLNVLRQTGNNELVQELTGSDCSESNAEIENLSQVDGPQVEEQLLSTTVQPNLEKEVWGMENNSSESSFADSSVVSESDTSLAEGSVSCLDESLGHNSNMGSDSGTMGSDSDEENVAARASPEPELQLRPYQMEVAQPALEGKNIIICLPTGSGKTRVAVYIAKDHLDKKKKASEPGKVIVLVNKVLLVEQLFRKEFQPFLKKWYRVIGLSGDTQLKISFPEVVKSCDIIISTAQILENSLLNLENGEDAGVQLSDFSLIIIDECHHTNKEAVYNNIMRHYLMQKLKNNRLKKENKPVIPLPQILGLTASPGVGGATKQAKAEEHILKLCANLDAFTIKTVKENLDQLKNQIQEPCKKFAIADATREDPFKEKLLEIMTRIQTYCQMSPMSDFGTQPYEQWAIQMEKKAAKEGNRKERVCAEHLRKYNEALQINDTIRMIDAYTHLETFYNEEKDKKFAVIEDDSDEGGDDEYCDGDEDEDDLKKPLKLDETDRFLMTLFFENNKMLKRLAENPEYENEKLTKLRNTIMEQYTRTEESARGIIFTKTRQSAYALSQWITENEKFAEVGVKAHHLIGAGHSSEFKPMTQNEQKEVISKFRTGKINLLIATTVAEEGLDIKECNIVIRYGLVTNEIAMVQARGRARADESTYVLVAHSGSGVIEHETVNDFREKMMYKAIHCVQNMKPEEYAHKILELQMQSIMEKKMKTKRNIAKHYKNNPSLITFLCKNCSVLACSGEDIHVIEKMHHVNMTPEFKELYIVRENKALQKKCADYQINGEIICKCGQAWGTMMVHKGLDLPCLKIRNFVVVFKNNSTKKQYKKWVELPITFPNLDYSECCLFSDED
Put plainly: co-IP; reverse co-IP: HEK293T co-transfected with pCMV-Myc-H1.2 and a pCMV-Flag plasmid for 36 h; immunoprecipitation with anti-Flag antibody; western blotting.

These are yes or no findings as the source states them, for the method shown. Binding seen in cells or lysates may run through a third protein. Some results given as binding are weak or reduced against the parent protein; the word gives no strength. For some assays here: Sequences can lack the tags named with a protein.

As for “Flag-tagged MAVS (from UniProt Q7Z434 1-540)”, the binding result with Myc-tagged histone H1.2 was “no binding”. Turning to “Myc-tagged histone H1.2 (from UniProt P16403 1-213)”, in the assay with Flag-tagged MDA5, the binding result was “binds”.
